Assay [1] addresses T1, Npa1-TurboID (S. cerevisiae), P34241.
T1 chain: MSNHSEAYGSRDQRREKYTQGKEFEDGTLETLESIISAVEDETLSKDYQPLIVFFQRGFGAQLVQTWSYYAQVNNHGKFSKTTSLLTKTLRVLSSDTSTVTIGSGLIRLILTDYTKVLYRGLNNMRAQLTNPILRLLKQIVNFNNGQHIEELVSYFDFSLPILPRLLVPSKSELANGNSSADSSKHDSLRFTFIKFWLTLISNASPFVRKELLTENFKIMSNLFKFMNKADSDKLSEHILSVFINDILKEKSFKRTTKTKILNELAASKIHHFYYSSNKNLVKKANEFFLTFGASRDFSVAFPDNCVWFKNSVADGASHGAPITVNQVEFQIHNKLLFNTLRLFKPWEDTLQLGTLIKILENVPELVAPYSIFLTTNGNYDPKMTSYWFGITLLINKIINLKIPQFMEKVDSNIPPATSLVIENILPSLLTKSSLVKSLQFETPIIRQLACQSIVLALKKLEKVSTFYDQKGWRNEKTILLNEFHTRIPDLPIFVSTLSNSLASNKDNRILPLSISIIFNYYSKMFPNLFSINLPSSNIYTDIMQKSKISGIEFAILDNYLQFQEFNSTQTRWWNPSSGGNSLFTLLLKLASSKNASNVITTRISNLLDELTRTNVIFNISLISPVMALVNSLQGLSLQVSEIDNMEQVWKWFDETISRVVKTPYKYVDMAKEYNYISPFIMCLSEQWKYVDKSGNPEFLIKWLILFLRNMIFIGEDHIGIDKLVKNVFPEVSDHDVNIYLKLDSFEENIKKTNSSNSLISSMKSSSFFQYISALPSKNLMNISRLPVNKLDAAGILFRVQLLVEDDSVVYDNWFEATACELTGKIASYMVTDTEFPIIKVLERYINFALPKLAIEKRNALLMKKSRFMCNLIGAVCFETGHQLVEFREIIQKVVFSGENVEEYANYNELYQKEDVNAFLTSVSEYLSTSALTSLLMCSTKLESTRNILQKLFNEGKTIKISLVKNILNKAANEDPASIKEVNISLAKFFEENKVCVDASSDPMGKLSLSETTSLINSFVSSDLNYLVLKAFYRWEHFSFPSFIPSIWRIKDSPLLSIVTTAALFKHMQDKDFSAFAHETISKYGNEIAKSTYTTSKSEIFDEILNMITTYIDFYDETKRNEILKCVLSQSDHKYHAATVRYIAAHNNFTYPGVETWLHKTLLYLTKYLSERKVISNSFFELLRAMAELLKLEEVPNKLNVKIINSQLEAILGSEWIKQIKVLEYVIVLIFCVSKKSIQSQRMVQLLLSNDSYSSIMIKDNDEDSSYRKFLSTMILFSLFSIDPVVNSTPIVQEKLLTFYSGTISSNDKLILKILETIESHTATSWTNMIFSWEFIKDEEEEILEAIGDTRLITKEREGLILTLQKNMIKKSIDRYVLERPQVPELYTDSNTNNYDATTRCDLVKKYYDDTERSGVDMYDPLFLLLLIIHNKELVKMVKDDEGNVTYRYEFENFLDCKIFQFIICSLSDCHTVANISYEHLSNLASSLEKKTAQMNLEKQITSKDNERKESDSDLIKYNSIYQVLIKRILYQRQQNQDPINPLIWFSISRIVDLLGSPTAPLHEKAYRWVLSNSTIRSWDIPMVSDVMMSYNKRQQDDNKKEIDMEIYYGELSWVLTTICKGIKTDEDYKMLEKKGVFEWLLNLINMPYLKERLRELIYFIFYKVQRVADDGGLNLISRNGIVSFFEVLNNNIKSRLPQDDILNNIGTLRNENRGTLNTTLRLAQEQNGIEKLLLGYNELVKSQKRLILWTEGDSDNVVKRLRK
The assay can be described thus: proximity labelling; TurboID: C-terminally TurboID-tagged bait from the CUP1 promoter in yeast, 500 uM copper sulfate and biotin for 1 h; biotinylated proteins purified on streptavidin agarose, LC-MS/MS; enrichment against NLS-GFP-TurboID control. As to conditions: remark: other sources report otherwise.

Sequences of proteins named here, by UniProt entry; tags and fusion partners are left off.
UniProt P14126: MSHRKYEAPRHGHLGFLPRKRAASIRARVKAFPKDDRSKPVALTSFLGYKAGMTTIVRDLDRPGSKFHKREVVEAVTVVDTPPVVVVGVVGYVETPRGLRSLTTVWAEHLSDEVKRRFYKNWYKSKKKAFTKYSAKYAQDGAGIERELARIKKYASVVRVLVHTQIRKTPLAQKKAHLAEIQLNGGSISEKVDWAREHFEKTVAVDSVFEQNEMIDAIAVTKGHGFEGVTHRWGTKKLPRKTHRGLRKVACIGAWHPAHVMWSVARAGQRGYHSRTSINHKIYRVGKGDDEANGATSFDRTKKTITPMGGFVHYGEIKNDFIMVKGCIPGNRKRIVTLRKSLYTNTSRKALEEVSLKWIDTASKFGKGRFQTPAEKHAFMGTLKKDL

Assay [2] has as its target T2, Rbp95-TurboID (S. cerevisiae) (UniProt P25617).
T2 sequence: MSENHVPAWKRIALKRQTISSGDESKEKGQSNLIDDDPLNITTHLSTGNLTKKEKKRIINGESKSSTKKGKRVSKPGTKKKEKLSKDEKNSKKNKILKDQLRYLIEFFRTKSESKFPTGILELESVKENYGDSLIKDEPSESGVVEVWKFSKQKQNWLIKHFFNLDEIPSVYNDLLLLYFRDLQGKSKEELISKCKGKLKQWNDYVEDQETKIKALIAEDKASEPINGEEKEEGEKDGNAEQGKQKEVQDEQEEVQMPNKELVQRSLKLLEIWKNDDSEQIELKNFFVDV
Described as above.

Assay [3] deals with Rpl3-TurboID (S. cerevisiae) (UniProt P14126). The description is as above.
For a further assay, the target named is T3, Noc2-TAP (S. cerevisiae) (UniProt P39744).
T3 sequence: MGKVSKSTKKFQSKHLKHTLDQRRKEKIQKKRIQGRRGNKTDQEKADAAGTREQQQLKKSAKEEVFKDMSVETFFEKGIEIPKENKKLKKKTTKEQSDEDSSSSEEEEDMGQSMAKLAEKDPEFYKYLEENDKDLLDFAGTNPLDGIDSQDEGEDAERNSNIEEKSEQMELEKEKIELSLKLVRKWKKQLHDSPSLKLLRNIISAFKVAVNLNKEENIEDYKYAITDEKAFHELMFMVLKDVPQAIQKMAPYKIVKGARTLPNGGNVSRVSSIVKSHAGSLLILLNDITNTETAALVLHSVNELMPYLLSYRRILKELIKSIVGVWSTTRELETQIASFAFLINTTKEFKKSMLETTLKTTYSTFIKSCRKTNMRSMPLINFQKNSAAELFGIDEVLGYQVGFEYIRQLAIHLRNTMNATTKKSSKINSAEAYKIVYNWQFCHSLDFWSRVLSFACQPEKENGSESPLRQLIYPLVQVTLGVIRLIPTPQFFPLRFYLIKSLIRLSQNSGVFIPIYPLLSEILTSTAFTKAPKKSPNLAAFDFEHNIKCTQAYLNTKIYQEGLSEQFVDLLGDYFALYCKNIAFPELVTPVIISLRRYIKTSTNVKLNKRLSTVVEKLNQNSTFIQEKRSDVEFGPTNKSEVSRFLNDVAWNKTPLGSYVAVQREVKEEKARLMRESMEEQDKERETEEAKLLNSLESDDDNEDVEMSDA
Nature of the assay: affinity purification with mass spectrometry; tandem-affinity purification from yeast lysate, elution from Calmodulin Sepharose with 0.8% ammonium hydroxide; label-free semi-quantitative LC-MS/MS (LFQ, MaxQuant); for Figure 8A, B from wild-type and Δrbp95 strains.

Assay [4] has as its target Npa1-TurboID (S. cerevisiae) (UniProt P34241). Nature of the assay: proximity labelling; TurboID: C-terminally TurboID-tagged bait from the CUP1 promoter in yeast, 500 uM copper sulfate and biotin for 1 h; biotinylated proteins purified on streptavidin agarose, LC-MS/MS; enrichment against NLS-GFP-TurboID control.
Assay [5] deals with T4, Rbp95-TAP (S. cerevisiae) (UniProt P25617).
T4 sequence: T2 sequence
The assay can be described thus: affinity purification with mass spectrometry; tandem-affinity purification from yeast lysate, elution from Calmodulin Sepharose with 0.8% ammonium hydroxide; label-free semi-quantitative LC-MS/MS (LFQ, MaxQuant); for Figure 8A, B from wild-type and Δrbp95 strains.

These are yes or no findings as the source states them, for the method shown. In cells and extracts the contact can be indirect. These calls come from enrichment with a bait or labelling near it, and not all partners need be listed.

B1: Npa2, P47108 1-1174 (protein)
chain: MGDLTEELSIPDNAQDLSKLLRSTSTKPHQIAEIVSKFDKLETYFPKKEIFVLDLLIDRLNNGNLDDFKTSEHTWIIFTRLLDAINDPISIKKLLKKLKTVPVMIRTFFLWPKDKLLTRSVSFIKAFFAINDYLIVNFSVEESFQLLEHAINGLSSCPTTDFALSYLQDACNLTHVDNITTTDNKIATCYCKHMLLPSLRYFAQTKNSASSNQSFIRLSHFMGKFLLQPRIDYMKLNKKFVQENASEITDDMAYYYFATFVTFLSKDNFAQLEVIFTILGAKKPSLECRFLNLLSESKKTVSQEFLEALLLEMLASTDESGVLSLIPIILKLDIEVAIKHIFRLLELIQLENLNDPLFSSHIWDLIIQSHANARELSDFFAKINEYCSRKGPDSYFLINHPAYVKSITKQLFTLSSLQWKNLLQALLDQVNHDSTNRVPLYLIRICLEGLSEGASRATLDEVKPILSQVFTLESFNNSLQWDLKYHIMEVYDDIVPAEELEKIDYVLSSNIFDTTSADVEELFFYCFKLREYISFDLSDAKKKFMRHFEILDEERKSNLSYSVVSKFATLVNNNFTREQISSLIDSLLLNSTNLSSLLKNDDIFEETNITYALINKLASSYHQTFALEALIQIPIQCINKNVRVALINNLTCESFCLDSATRECLLHLLSSPTFKSNIETNFYELCEKTIMSPEMAISETGDEKKEIEDKISIFEKVWTNHLSQAKEPVSEKFLESGYDIVKQSMSLSNGDSKLIIAGFTIAKFLKPDNKHRDIQGMAISYAVKILENYSENFESETIPLFRISMSTLYKIITTGQGDISKHKSRILDIFSKIMLRYHSKKVYHAPEEQEMFLVHSLLTENKLEYIFAEYLNIEHTDKCDSALGFCLEESLKQGPDAFNRLLWNSAKSFSTISQPCAEKFVRVFIIMSKRIARDNNLGHHLFVIALLEAYTYCDIEKFGYKSYLLLFNAIKEFLVSKPWLFSQYCIEMLLPFCLKTLAFIVNHESTDEINEGFINIIEVIDHMLLVHRFKFSNRHHLFNSVLCQILEIIAIHDGTLCANSADAVARLITNYCEPYNVSNAQNGQKNNLSSKISLIKQSIRKNVLVVLTKYIQLSITTQFSLNIKKSLQPGIHAIFDILSQNELNQLNAFLDTPGKQYFKALYLQYKKVGKWRED
Consider B1, for which the binding entry in assay [1] is “binds”.

B2: Ssf1 (protein, UniProt P38789 1-453)
chain: MAKRRQKKRTHAQLTPEQEQGIPKSMVIRVGQTSLANHSLNQLVKDFRQIMQPHTAIKLKERKSNKLKDFVVMCGPLGVTHLFMFTQSEKTGNVSLKIARTPQGPTVTFQVLDYSLGRDIKKFLKRPKSLNNDDVLNPPLLVLNGFSTSKRSGEDDQDVNVEKVIVSMFQNIFPPLNPARTSLNSIKRVFMINKDRETGEISMRHYFIDIREVEISRNLKRLYKAKNNLSKTVPNLHRKEDISSLILDHDLGAYTSESEIEDDAIVRVVDNQDVKAKHSQSLKSQRTPVEKKDNKEREKETEEEDVEMEEPKPSENLQPTPRKKAIKLTELGPRLTLKLVKIEEGICSGKVLHHEFVQKSSEEIKALEKRHAAKMRLKEQRKKEQEENIAKKKAVKDAKKQRKLERRKARAAEGGEGQGKDDAMSDDESSSSDSEHYGSVPEDLDSDLFSEVE
Take B2: the binding result (in assay [2]; in assay [3]; in the assay with Noc2-TAP (S. cerevisiae)) was “binds” in each case.

B3: Nop8 (protein, UniProt Q08287 1-484)
chain: MDSVIQKRIFVGNIFHNADDCYSELLDRFGKFGDCQDFQFEKHNHFAFIDIRFNDEADFNKLRKSFNNVKFKGNILKVDEAKPNWESTWAVQHAKDLKEDIILNAKMKKKNWQHYKKMENVAKSWKDHKEVIAGRMREAPRKRSQLRNITFRINVNGSLKVYKCYKTKLWGYERNKELNDLVYKFTNNFWKNGYNHIVDRLDYSRAVKTVRFKNGLKQLTVSKDENVCSGEMDSDENMSEEEKEKNNVILNDLLKDFDFDKPMTLNDSDEELLTEQRKGEEEEEEEEEKEVNAPEYENVNKTKDQSTLPQEKPEERKEQDEGDGQEDNEFIPTFTKEIGQGTISNTETLRNLFNPNEAEPVSQFKLIEDSDNDIDHAKDVDVNQLEEEVSKSSDTLGLTSAPVPHVSRDKDNKNFLFFPHLQSPFLVGQTQLSKVRAPGRETMLSNWDEEFWANRGNWTRDMRRKMKDALKHRKRKQSKSGLLL
B3: the binding entry in assay [4], in assay [2] and in assay [5] was “binds” throughout.

B4: Rbp95 (Ycr016w) (protein, UniProt P25617 1-290)
chain: T2 sequence
B4: the binding result in assay [4] and in assay [3] was “binds” each time.

The record behind these values is publication PMC9508819, “Rbp95 binds to 25S rRNA helix H95 and cooperates with the Npa1 complex during early pre-60S particle maturation”.
